Results from US20030049211A1, “Remedies and preventives for dental diseases” (priority 2000, published 2003).

Test system: nude rat implanted with human large cell lung carcinoma LC-6
Assay: Histopathological change in the dentin of lower incisor teeth (HE stain)
Format: in vivo
Details: LC-6-implanted nude rats
Text: As a model animal, a nude rat implanted with human large cell lung carcinoma LC-6 [purchased from the Central Institute for Experimental Animals] was used. […] The human large cell lung carcinoma LC-6 was subcultured in vivo using a BALB/c-nu/nu nude mouse (CLEA Japan, Inc.).
8-week-old nude rats (F344/N Jcl-rnu) were implanted with LC-6 and these implanted-animals were divided into: a lesion control group (LC-6 group: n=5); an anti-PTHrP antibody administration group (antibody group: n=5); and, as a control agent, a commercially available therapeutic agents for hypercalcemia, Alendronate, administration group (ALN group). A non-treated control group (normal group) comprising rats of the same lineage and same week-old without the implantation of LC-6 was also provided. From the fifth week to the tenth week after the LC-6 implantation, PBS (1 ml/kg) to the LC-6 group, the anti-PTHrP antibody (3 mg/kg) to the antibody group, and ALN (2.5 mg/kg) to the ALN group, were respectively intravenously administered. Administration was carried out once a week for the LC-6 group and for the antibody group (6 times in total) and twice a week for the ALN group (12 times in total). The animals were bred until the twelfth week after the tumor implantation and then subjected to the autopsy (see Example 2). […]

SMILES: NCCCC(O)(P(=O)(O)O)P(=O)(O)O [ALN, Alendronate]
- single cell necrosis of the pulp cell (ALN 2.5 mg/kg i.v. twice a week (12 times)): observed
- lesion of incisor tooth (histopathological finding) (i.v. from fifth to tenth week after implantation, autopsy at twelfth week, antibody 3 mg/kg once a week, ALN 2.5 mg/kg twice a week): not improved
